2 molecules from article doi:10.1101/2025.01.09.632146 can be followed below.

Sequences of proteins named here, by UniProt entry; tags and fusion partners are left off. A change or cut given only in a name is not applied to a line headed by its entry.
UniProt O04834: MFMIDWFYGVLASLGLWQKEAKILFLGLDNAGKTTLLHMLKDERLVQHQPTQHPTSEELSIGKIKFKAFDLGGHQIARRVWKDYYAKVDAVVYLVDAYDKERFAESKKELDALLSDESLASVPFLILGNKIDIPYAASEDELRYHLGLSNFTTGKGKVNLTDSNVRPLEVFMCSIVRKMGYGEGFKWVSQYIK

These are yes or no findings as the source states them, for the method shown. Binding can be weak; no strength is given. For some assays here: In cells and extracts the contact can be indirect.

Assay [1] has as its target T1, AtPHT1;1-CubPLV (Arabidopsis thaliana) (UniProt Q8VYM2).
T1 sequence: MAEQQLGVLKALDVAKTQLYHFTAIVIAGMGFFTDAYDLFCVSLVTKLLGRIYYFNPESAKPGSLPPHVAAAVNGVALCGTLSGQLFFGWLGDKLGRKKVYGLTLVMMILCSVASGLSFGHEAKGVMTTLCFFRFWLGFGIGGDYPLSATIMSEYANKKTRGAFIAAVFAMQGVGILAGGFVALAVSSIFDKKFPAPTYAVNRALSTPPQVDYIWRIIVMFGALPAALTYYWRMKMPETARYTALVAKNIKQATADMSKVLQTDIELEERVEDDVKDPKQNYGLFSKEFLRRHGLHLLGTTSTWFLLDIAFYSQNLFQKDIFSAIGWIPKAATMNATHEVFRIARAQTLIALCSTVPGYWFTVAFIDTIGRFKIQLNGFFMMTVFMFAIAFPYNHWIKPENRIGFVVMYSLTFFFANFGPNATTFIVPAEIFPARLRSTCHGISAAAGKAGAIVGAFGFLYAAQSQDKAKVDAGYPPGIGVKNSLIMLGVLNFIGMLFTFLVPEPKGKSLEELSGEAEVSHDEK
Briefly: two-hybrid.

For assay [2], the target named is AtSAR1c-S11 (Arabidopsis thaliana) (UniProt O04834). The assay can be described thus: split reporter.

In the case of AtSAR1c-NubG (from UniProt O04834), the binding result in assay [1] was “binds”.

B1: S10-AtPHF1 N (domain or fragment, UniProt Q8GYE0 1-337)
chain: MEIEEASRESGHVVCGSWIRRPKKVNWVLIAKASKRRGSSVSSPALLNIFSFDPITASLSSSPLATHTLKDSDGDPVAVSVHPGGDYFVCSTSKGGCKLFELVGGATGITILAKELLPLQNAGLQKCMAFSFDGSKLAVGGVDGCLRIMEWPNLSVILDEPKAHKSIRDMDFSLDSEFLATTSTDGSARIWKAEDGFPLSTLERSGDENIELCRFSKDGTKPFLFCAAQRGDTPMVNVYDISTWKKLGFKKLSRKTASTMAVSLDGKYIALGGKDGDVSVAEVKTMEIYHYSKRLHLGQSIASLEFCPSERVMLTTSSEWGEMVTKLTVPKEWKEWQ
With B1, the binding entry in assay [2] was “binds”.
